# From PubChem BioAssay AID1508600 (Functional Genomics Laboratory (NCATS/FGL), 2020)
# Hit rate of the full screen: of about 53,000 sequences, about 3,700 (7%) were called active.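 How the source made its calls: active means gene knockdowns whose robust z-score for IL-1 alpha signal is at least 2 or at most -2, so actives lie on both sides; inactive means the rest.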 The list shows a part of the results.
# Test: Components of the Cytosolic LPS Sensing Pathway: Gene Identification via Genome-wide siRNA Screen;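 further: robust z of the log signal after scaling to non-targeting control siRNA wells of the plate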
# Conditions: RAW264.7 macrophages, IL-1a HTRF, actives lie on both sides, screened at 100 nM (by protocol), cells primed 5 h with Pam3CSK4 first
# Procedure, shortened: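 Knockdown: 100 nM siRNA, 48h, RAW264.7. Stimulation: Pam3CSK4 5 h, then LipidA via TransIT-TKO 24 h. Output: supernatant IL-1a HTRF, negative-control-normalized, log robust z-score; viability by CellTiter-Glo.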
row,Sequence,z-score
1,GCUCUCAGAUGACAUCACUTT against Supt5,active: -2.43
2,CCAAGGUAUGAAGAUAUUUTT against Rfpl4,inactive: 0.575
3,GGCUUCUUAUUGAUGUUGGTT against Asb13,inactive: -0.166
4,GGCUGCUACUUCAGACAGCTT against Pou6f2,inactive: -0.163
5,GGCCAAAAUUAAAAAGGCCTT against Chmp1b,inactive: 1.12
6,GGACAAAGAAUCCAAAAUATT against Etv6,active: 2.25
7,CCACGCAACUAUAAGCUGCTT against B3gat1,inactive: -1.26
8,CCUAAUGUUUAGAUCCAUATT against Gcm2,inactive: 0.11
9,GGUACUGUCCAAGAAGCCGTT against Ankmy2,inactive: -0.966
10,GCCUCAUUAGUUAAUAUUCTT against Ppp1r8,inactive: -0.301
11,GGAUAAACGGACAGGCCCATT against Socs2,inactive: 0.282
12,GGUCCCAACGAAGAAACCATT against Cd55,inactive: 0.475
13,GGGACAACCCAUCAACAAUTT against Catsper1,inactive: -0.614
14,GGACAGUGUGUUUUCUUGUTT against Ankle1,inactive: 0.551
15,GCCUUUCGAUUCUAAUUGCTT against Fkbp6,inactive: 0.577
16,GGCUAUGUUAUUGACAUGUTT against Ammecr1l,inactive: 0.208
17,GGCAGAACACUGAAAGGGATT against Mrps11,inactive: 0.816
18,GCCAGGGACUUGCUAUUGATT against Txlna,inactive: -0.24
19,GGAUCAUGGUCCUGUCUUUTT against Rlbp1,inactive: -0.258
20,CCAAUGUGCUCAUGCUCUATT against Nodal,inactive: 1.06
21,CGAGAACCCUGACAUAAUCTT against Ddx54,inactive: -0.576
22,GCCACAAAUCGAAUCUUACTT against Zfp146,inactive: 1.58
23,GGGCAAUCUGAGCAAUUGUTT against Wnt7b,inactive: -0.213

row,Sequence,z-score
1,GGUCUUUCCGGCAGUUCUUTT against Rxrg,active: -2.27
2,GGGAAGGAUUUUUGAUGAUTT against Arfgap1,inactive: 1.33
3,GGAAAUGUUGAAUCUUGCUTT against Mfsd4a,inactive: 0.0725
4,GGAAUCUUCUCAGCUUAAUTT against Slc17a2,inactive: -0.363
5,CCUACAACUCAGCGCAUGATT against Ptgs1,inactive: -1.28
6,GGAACUGAUGAAUAUUUCATT against Chrnb1,inactive: 0.78
7,GCAAAUGUAAUGGUGAAAGTT against Cldn1,inactive: -0.328
8,CGGCUGACUACAUUUCAAGTT against Camk4,inactive: -1.12
9,GGAUCAGUACCUGUGAUGGTT against Adamdec1,active: -2.07
10,GGUCUGUGACGAGAAGCUATT against Rab4a,inactive: -1.43
11,GGUGUCAUUAGCUUUACUUTT against Armc1,inactive: 1.94
12,CCAACGUGUCCUUGCUCAATT against Tsks,inactive: -1.28
13,GCUCAACCGUAACAUCCAGTT against Krt77,inactive: 0.614
14,CGGCUCACUAGCAGUGUCUTT against Ppm1b,inactive: -0.209
15,GGAAAAGGUGUUCUGUUUUTT against Ankef1,inactive: 0.165
16,GGAGAAACUUCUUUAAAGCTT against 5830427D03Rik,inactive: 0.573
17,CCAUAAACUAUGAGUUUUGTT against Elovl7,active: 2.4
18,GGGCUACUCAAAGAAGAUATT against Galnt5,inactive: -0.357
19,GGAUUUUAACAAAUUCUGCTT against Phf23,inactive: 0.813
20,GGUAGAUCAGUAAUAGUUATT against Glrb,inactive: 0.837
21,GGUGAUUGUACUGUCAGCUTT against Olfr1221,inactive: 0.0275
22,GGCUUUGUGCUUUAACCUUTT against Tceal5,inactive: -0.838
23,GGAUUAAAUGCCUUGAAGGTT against Niban1,inactive: 0.452

row,Sequence,z-score
1,GGAUGCUCUAAGUUGGAGUTT against Tinf2,inactive: -0.193
2,GGGAUUGUUCAAAUGCUAUTT against Cldn8,inactive: 1.21
3,GGCCUGAAGAAACACGAGATT against C1qtnf1,inactive: -0.00127
4,GGAAAUUCCGAGGAUGGAATT against H2-M3,inactive: 0.226
5,GGAACAACAGGCAAUGAAUTT against Zfp874a,inactive: 1.15
6,GCUGAAACCGCUAUUAAAUTT against Pou3f4,inactive: 0.529
7,GCUACCAACCAUUAAGAUATT against Lipk,inactive: -1.21
8,GCGAAGGAUGAUGUGUAUUTT against Magt1,inactive: 0.547
9,CCCAAAACUACGACUCCUGTT against Dpf3,inactive: -1.82
10,GGUAUGAUCCAGUAAUCCUTT against Vmn1r5,inactive: 0.243
11,GGACAAAGGUGAAAACGGUTT against Gpr19,inactive: 1.28
12,CCUGCACCAUAAGAAAUCUTT against Fndc3c1,inactive: 0.416
13,CGAUGAGCCUUUUAAUUGUTT against Zfp871,inactive: 1.04
14,GGUUAUCAUGAGGCCUUGGTT against Olfr1339,active: -2.38
15,GGGCUAUAACCCUGAAGAUTT against Rarg,inactive: -0.087
16,CGGUUGUUAAAAAAAGUCATT against Atad2,inactive: -1.24
17,CCAUUGUAUAGGAAAGUGATT against Nras,inactive: 0.615
18,GCCAUGUUCCCAUUUAACUTT against A730018C14Rik,inactive: 1.34
19,GGAGGGACAUUAAACUAUUTT against Chchd3,inactive: 1.18
20,GGAAGUUCAGAACUCAGUUTT against Mob4,inactive: -1.23
21,GUAUGAACCUAACACAUUCTT against Vmn1r188,inactive: 0.493
22,CGUAGCACUUCUUCUCUUATT against Dync1li2,inactive: 0.484

# Nothing new here: an excerpt of the list.
row,Sequence,z-score
2,GGGAUUGUUCAAAUGCUAUTT against Cldn8,inactive: 1.21
3,GGCCUGAAGAAACACGAGATT against C1qtnf1,inactive: -0.00127
4,GGAAAUUCCGAGGAUGGAATT against H2-M3,inactive: 0.226
